# These are yes or no findings as the source states them, for the method shown. Some binding calls cover weakened binding; strength is not graded here.
# Sequences of proteins named here, by UniProt entry; tags and fusion partners are left off. Residues count along the entry.
# UniProt Q01973, residues 30-403: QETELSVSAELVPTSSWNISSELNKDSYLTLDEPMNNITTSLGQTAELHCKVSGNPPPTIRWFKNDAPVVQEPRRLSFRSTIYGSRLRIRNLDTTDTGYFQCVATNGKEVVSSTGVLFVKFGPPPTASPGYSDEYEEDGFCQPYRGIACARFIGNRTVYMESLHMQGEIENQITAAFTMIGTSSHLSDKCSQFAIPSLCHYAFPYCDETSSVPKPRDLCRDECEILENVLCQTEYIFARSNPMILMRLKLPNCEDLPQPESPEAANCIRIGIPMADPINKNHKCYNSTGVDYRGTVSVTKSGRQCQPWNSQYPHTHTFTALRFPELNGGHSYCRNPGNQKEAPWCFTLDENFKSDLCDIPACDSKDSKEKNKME
# B1: Positive clone with the VH of SEQ ID NO: 28 and the kappa LC of SEQ ID NO: 29 (antibody, V domains shown)
# VH: QMQLVQSGPGLVKPSGTLSLTCAVSGGSISGSNWWSWVRQPPGKGLEWIGEIFHSGSTNYNPSLKSRVTISVDKSKNQFSLNLNSVTAADTAVYYCAKDRGGYYDSSGYSHWGQGTMVTVSS
# VL: DIVMTQSPSSVSASVGGRVTITCRASQGISSWLAWYQQKPGRAPKLLIYAASSLQSGVPSRFSGSGSGTDFTLTISSLQPEDFATYYCQQANSFPITFGQGTRLEIKR
# Target: FITC-labeled ROR1 antigen (UniProt Q01973)
# Test: FACS, FCHO cell clones double-positive for PE anti-human kappa antibody and FITC-labeled ROR1
binder,measurement,value
B1,binding,binds

# — patent US20230124855A1
